Data reported in article PMC6915745, “TRIB3 supports breast cancer stemness by suppressing FOXO1 degradation and enhancing SOX2 transcription” (Nature Communications, 2019).
No constants are given. Whether binding was seen depends on the method and setting. In cells and extracts the contact can be indirect. Binding calls can cover weak binding; strength is not graded here.

Sequences of proteins named here, by UniProt entry; tags and fusion partners are left off. A change or cut given only in a name is not applied to a line headed by its entry.
UniProt Q96RU7: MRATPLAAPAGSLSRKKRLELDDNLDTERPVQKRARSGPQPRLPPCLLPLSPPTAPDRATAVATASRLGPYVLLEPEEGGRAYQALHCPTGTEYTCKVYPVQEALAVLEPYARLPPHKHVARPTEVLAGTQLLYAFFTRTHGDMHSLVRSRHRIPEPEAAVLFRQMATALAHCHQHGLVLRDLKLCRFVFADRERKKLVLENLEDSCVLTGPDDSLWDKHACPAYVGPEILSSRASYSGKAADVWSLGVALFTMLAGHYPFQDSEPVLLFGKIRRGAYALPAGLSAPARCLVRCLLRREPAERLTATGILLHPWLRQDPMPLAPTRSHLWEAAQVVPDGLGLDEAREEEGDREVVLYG
UniProt P31749: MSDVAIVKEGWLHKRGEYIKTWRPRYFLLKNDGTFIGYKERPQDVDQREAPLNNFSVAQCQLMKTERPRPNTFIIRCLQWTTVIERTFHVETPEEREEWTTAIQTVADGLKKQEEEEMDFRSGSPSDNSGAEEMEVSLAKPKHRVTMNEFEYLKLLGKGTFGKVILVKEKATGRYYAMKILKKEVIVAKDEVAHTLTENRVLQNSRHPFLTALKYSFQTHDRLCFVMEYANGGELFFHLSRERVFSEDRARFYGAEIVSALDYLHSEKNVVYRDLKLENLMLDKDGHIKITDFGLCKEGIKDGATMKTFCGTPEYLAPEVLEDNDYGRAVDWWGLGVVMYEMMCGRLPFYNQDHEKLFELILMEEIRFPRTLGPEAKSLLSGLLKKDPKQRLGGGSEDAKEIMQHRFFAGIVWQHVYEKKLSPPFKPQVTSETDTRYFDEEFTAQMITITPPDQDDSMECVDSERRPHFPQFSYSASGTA

Molecular target: TRIB3-HA (human) (UniProt Q96RU7)
Assay: co-IP; HEK293T cells co-transfected with AKT1-Myc and TRIB3-HA constructs; cell extracts IP with an anti-HA Ab

“AKT1-Myc △Ae mutant (from UniProt P31749)” was tested, and the binding was “binds weakly”.
